The source of these data is publication PMC5727386.

Chains of the proteins cited; added tags and fusions are not shown. Lines headed by an entry give the natural chain unless they say otherwise; changes in a name come on top.
UniProt Q64096: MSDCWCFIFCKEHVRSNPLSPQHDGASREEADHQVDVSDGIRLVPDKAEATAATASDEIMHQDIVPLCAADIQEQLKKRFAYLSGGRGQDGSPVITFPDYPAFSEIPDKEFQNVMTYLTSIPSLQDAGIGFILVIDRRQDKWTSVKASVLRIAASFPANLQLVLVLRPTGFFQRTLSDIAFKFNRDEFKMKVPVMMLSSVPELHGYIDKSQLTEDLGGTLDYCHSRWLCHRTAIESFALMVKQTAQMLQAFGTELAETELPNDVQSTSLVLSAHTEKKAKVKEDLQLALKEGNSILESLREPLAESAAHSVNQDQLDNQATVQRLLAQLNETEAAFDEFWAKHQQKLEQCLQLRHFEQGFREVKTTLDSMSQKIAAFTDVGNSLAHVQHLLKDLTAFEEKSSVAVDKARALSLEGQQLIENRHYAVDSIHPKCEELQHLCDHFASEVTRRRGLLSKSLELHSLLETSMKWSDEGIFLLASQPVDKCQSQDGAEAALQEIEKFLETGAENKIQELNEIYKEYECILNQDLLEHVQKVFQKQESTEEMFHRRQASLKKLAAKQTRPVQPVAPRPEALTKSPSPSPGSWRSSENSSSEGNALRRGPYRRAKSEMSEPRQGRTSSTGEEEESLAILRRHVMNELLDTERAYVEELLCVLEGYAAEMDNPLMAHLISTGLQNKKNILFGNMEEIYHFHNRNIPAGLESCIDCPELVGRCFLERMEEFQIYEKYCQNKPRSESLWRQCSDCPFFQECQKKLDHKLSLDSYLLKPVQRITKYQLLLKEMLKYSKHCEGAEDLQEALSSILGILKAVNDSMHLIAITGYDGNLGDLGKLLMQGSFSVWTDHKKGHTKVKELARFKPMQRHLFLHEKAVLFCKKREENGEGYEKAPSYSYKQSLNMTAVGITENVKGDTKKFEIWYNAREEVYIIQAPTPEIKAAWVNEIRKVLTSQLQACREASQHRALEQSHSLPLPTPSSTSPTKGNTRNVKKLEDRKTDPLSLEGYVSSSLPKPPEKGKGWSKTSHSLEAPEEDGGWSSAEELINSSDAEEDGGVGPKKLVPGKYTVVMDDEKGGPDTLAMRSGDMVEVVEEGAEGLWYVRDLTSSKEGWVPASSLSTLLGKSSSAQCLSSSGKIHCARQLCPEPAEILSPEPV
UniProt P60953: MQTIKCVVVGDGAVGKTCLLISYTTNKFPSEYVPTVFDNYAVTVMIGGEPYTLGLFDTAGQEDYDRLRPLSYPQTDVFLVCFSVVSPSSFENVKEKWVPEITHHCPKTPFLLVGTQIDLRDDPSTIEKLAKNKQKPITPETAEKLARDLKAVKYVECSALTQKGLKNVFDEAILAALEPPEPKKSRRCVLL
UniProt P61586: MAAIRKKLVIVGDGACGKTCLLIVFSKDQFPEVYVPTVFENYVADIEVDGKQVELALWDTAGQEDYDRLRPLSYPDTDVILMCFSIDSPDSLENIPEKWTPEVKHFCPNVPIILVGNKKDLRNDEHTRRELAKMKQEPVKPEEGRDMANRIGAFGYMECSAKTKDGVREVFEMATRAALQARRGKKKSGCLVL

Assay [1] concerns the target Dbs DH–PH domain (UniProt Q64096). As to the kind of experiment: SEC; co-migration on analytical Superdex75 10/300; DH–PH or DH constructs mixed with GTPases 1:2, dialysed into EDTA- or MgCl2-containing buffer overnight at 4 °C; both purified. (In gel filtration, larger molecules generally elute earlier.)
For assay [2] the target is unchanged. Nature of the assay: pull-down; Ni-NTA Sepharose; His-tagged DH–PH or DH constructs as bait, untagged GTPases as prey, 1:2 molar ratio; dialysed into 25 mM Tris-HCl pH 7.5, 150 mM NaCl, 2 mM DTT with 1 mM EDTA or 10 mM MgCl2; 2 h at 4 °C; Coomassie SDS-PAGE; both purified.

No constants are given. Whether binding was seen depends on the method and setting. Binding calls can cover weak binding; strength is not graded here.

Turning to “Cdc42 (from UniProt P60953 1-191) (enzyme)”, the binding result with Dbs DH–PH domain [1] and in the assay with Dbs DH–PH domain [2] was “binds” in each case.
“RhoA (from UniProt P61586 1-193) (enzyme)”: the binding entry with Dbs DH–PH domain [1] and with Dbs DH–PH domain [2] was “binds” each time.
